Columns and labels:
Conditions in all cases: IC50 against PEM/IC50 against promastigotes
[1] = test system: Ld39 promastigotes (SSG-resistant); assay: In vitro anti-promastigote activity, Ld39; assay type: cell-based, Leishmania donovani
Protocol: (§1) Cell Lines and Cell Culture. Promastigotes of Leishmania donovani (wild type LdAG83, pentamidine-resistant LdAG83-PentR50, and SSG-resistant Ld39) and Leishmania major [MHOM/IL/67/JERICHO II (Lm50122), from ATCC] were used in this study.
(§2) In Vitro Anti-Promastigote Activity. The viability of promastigotes was determined by the Cell Titer 96° Aqueous Assay (Promega) that employs a tetrazolium compound (MTS, 2-(4,5-Dimethylthiazol-2-yl-)-5-[3-(carboxymethoxy)phenyl]-2-(4-sulfophenyl)-2H-tetrazolium) and electron coupling reagent, phenazine methosulfate (PMS).^7 Promastigotes were seeded into 96-well flat bottom microtiter plate at 1×10^5 cells per well in a final volume of 100 μL medium and incubated with a series concentration of synthetic flavonoid dimers or known antileishmanials. The parasites were incubated at 27° C. for 72 hrs. Fresh solution of 2 mg/mL MTS and 0.92 mg/mL PMS were prepared in a ratio of 20:1 (MTS:PMS). After 72 hrs incubation, 10 μL of MTS:PMS mixture was added into each well of microtiter plate. The plate was then incubated at 27° C. for 4 hrs for color development. After 4 hrs incubation, the OD values were determined at 490 nm using automatic microtiter plate reader (Bio-Rad).

[2] = test system: Lm50122 promastigotes; assay: In vitro anti-promastigote activity, Lm50122; assay type: cell-based, Leishmania major
Protocol: as §1, §2

[3] = test system: LdAG83 promastigotes (wild type); assay: In vitro anti-promastigote activity, LdAG83; assay type: cell-based, Leishmania donovani
Protocol: as §1, §2

SMILES | Therapeutic index relative to PEM, Ld39 [1] | Therapeutic index relative to PEM, Lm50122 [2] | Therapeutic index relative to PEM, LdAG83 [3]
O.O.O.O.O.O.O.O.O.O=C([O-])[C@@H]1[O][Sb]2([O-])([O][Sb]34([OH])[O][C@H]([C@H](O)CO)[C@H]([O]3)[C@H](C(=O)[O-])[O]4)[O][C@H]([C@H](O)CO)[C@@H]1[O]2.[Na+].[Na+].[Na+] [Sodium stibogluconate, sodium stibogluconate, reference compound] | >1.6 | >10.5 | >4.1
O=c1cc(-c2ccc(OCCOCCN(CCOCCOc3ccc(-c4cc(=O)c5ccccc5o4)cc3)Cc3ccncc3)cc2)oc2ccccc12 [Compound 21, 1,13-Bis[4′-(4H-chromen-4-on-2-yl)phenyl]-N-(4-pyridylmethyl)-1,4,10,13-tetraoxa-7-azamidecane] | >463.2 | >251.4 | >488.9

— patent publication US8980848B2, “Flavonoid dimers and their use” (The Hong Kong Polytechnic University, priority 2010, dated 2015)
